Where two headings read alike, the source gives them in different places.
Legend:
[1] = fasted mice, alendronate 4 mg/kg; for Plasma alendronate: oral, BAC 0x
[2] = fed mice, alendronate 0.4 mg/kg, alone or +4x molar BAC-A6
in vivo = details: male, Swiss CFW, mouse, plasma; for AUC: po
[3] = oral, 0.4 mg/kg, Plasma alendronate, fed mice, oral, alendronate 0.4 mg/kg alone or +BAC-A6 4X molar
[4] = oral, 4 mg/kg, Plasma alendronate, fasted mice, oral, alendronate 4 mg/kg alone or +BAC-A6 4X molar
[5] = oral, 4 mg/kg, Plasma alendronate, fed mice, oral, alendronate 4 mg/kg alone or +BAC-A6 4X molar

Compound: NCCCC(O)(P(=O)(O)O)P(=O)(O)O [Alendronate, alendronate]
- AUC summary line (sum divided by 2 h) ([1]; BAC-A6 0x): 29.99 ng/mL/h
- Plasma alendronate ([1]; 0 h): 0.00
- Plasma alendronate ([1]; 0.5 h): 20.09
- Plasma alendronate ([1]; 0.75 h): 18.91
- Plasma alendronate ([1]; 1 h): 40.18
- Plasma alendronate ([1]; 2 h): 40.18
- Plasma alendronate ([1]; […]): 20.09
- AUC summary line (sum divided by 4 h) [2]: 5.57 ng/mL/h
- concentration at 0 h (in vivo; [3]): 0 ng/mL
- concentration at 0.75 h (in vivo; [3]): 6.64 ng/mL
- concentration at 1 h (in vivo; [3]): 5.19 ng/mL
- concentration at 1.5 h (in vivo; oral, 0.4 mg/kg, Plasma alendronate, fed mice, oral, alendronate 0.4 mg/kg alone or +BAC-A6 4X molar, 1.5 h): 4.95 ng/mL
- concentration at 2 h (in vivo; [3]): 5.92 ng/mL
- concentration at 3 h (in vivo; oral, 0.4 mg/kg, Plasma alendronate, fed mice, oral, alendronate 0.4 mg/kg alone or +BAC-A6 4X molar, 3 h): 6.4 ng/mL
- concentration at 4 h (in vivo; [3]): 4.71 ng/mL
- concentration at 0 h (in vivo; [4]): 0 ng/mL
- concentration at 0.5 h (in vivo; oral, 4 mg/kg, Plasma alendronate, fasted mice, oral, alendronate 4 mg/kg alone or +BAC-A6 4X molar, 0.5 h): 27.2 ng/mL
- concentration at 1 h (in vivo; [4]): 28.1 ng/mL
- concentration at 2 h (in vivo; [4]): 18 ng/mL
- concentration at 4 h (in vivo; [4]): 7.83 ng/mL
- concentration at 0 h (in vivo; [5]): 0 ng/mL
- concentration at 0.75 h (in vivo; [5]): 29.9 ng/mL
- concentration at 1 h (in vivo; [5]): 28 ng/mL
- concentration at 2 h (in vivo; [5]): 13.1 ng/mL
- concentration at 4 h (in vivo; [5]): 0.93 ng/mL
- AUC (in vivo; 0.4 mg/kg, AUC (interval), fed mice, alendronate 0.4 mg/kg alone or +BAC-A6 4X molar, interval ending 0.75 h): 3.11 ng·h/mL
- AUC (in vivo; 0.4 mg/kg, AUC (interval), fed mice, alendronate 0.4 mg/kg alone or +BAC-A6 4X molar, interval ending 1 h): 1.48 ng·h/mL
- AUC (in vivo; 0.4 mg/kg, AUC (interval), fed mice, alendronate 0.4 mg/kg alone or +BAC-A6 4X molar, interval ending 1.5 h): 2.54 ng·h/mL
- AUC (in vivo; 0.4 mg/kg, AUC (interval), fed mice, alendronate 0.4 mg/kg alone or +BAC-A6 4X molar, interval ending 2 h): 2.72 ng·h/mL
- AUC (in vivo; 0.4 mg/kg, AUC (interval), fed mice, alendronate 0.4 mg/kg alone or +BAC-A6 4X molar, interval ending 3 h): 6.16 ng·h/mL
- AUC (in vivo; 0.4 mg/kg, AUC (interval), fed mice, alendronate 0.4 mg/kg alone or +BAC-A6 4X molar, interval ending 4 h): 5.56 ng·h/mL
- AUC (in vivo; 0.4 mg/kg, AUC (interval), fed mice, alendronate 0.4 mg/kg alone or +BAC-A6 4X molar, interval ending […]): 0.72 ng·h/mL
- AUC (in vivo; 0.4 mg/kg, AUC (sum), fed mice, alendronate 0.4 mg/kg alone or +BAC-A6 4X molar, 0-4 h): 22.3 ng·h/mL
- AUC (in vivo; 4 mg/kg, AUC (interval), fasted mice, alendronate 4 mg/kg alone or +BAC-A6 4X molar, interval ending 0.5 h): 6.8 ng·h/mL
- AUC (in vivo; 4 mg/kg, AUC (interval), fasted mice, alendronate 4 mg/kg alone or +BAC-A6 4X molar, interval ending 1 h): 13.8 ng·h/mL
- AUC (in vivo; 4 mg/kg, AUC (interval), fasted mice, alendronate 4 mg/kg alone or +BAC-A6 4X molar, interval ending 2 h): 23 ng·h/mL
- AUC (in vivo; 4 mg/kg, AUC (interval), fasted mice, alendronate 4 mg/kg alone or +BAC-A6 4X molar, interval ending 4 h): 25.8 ng·h/mL
- AUC (in vivo; 4 mg/kg, AUC (interval), fed mice, alendronate 4 mg/kg alone or +BAC-A6 4X molar, interval ending 0.75 h): 13.1 ng·h/mL
- AUC (in vivo; 4 mg/kg, AUC (interval), fed mice, alendronate 4 mg/kg alone or +BAC-A6 4X molar, interval ending 1 h): 7.23 ng·h/mL
- AUC (in vivo; 4 mg/kg, AUC (interval), fed mice, alendronate 4 mg/kg alone or +BAC-A6 4X molar, interval ending 2 h): 20.5 ng·h/mL
- AUC (in vivo; 4 mg/kg, AUC (interval), fed mice, alendronate 4 mg/kg alone or +BAC-A6 4X molar, interval ending 4 h): 14 ng·h/mL
- AUC (in vivo; 4 mg/kg, AUC (interval), fed mice, alendronate 4 mg/kg alone or +BAC-A6 4X molar, interval ending […]): 2.8 ng·h/mL
- AUC (in vivo; 4 mg/kg, AUC (sum), fasted mice, alendronate 4 mg/kg alone or +BAC-A6 4X molar, 0-4 h): 69.5 ng·h/mL
- AUC (in vivo; 4 mg/kg, AUC (sum), fed mice, alendronate 4 mg/kg alone or +BAC-A6 4X molar, 0-4 h): 57.6 ng·h/mL

Source: patent publication US20080026077A1, “METHODS AND COMPOSITIONS OF GENE DELIVERY AGENTS FOR SYSTEMIC AND LOCAL THERAPY” (priority 2002, published 2008)
